In PubChem BioAssay AID651640 (Broad Institute, 2012):
Among all 350,000 compounds or so, about 6,000 (1.7%) were called active. The shares of active, inactive and inconclusive entries below differ from those in the screen. No stated cut-off is given here; in the data, active means CPE inhibition above about 20% (passing the limit was not always enough); inconclusive means no clear call, values can overlap the other calls; tested in BHK-21 cells. Where a structure was tested more than once in an assay, its records may differ in their call.

test: protection of cells from dengue 2 killing – plate reader, single concentration, primary screen (AID 651640); conditions: DENV2-infected cells, cytopathic effect rescue, at 9.99 µM, active compounds read high;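 further: 0% = median of neutral control wells and 100% = median of positive control wells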

SMILES	CPE inhibition
O=C(COC(=O)CCN1C(=O)C2CC=CCC2C1=O)NCCc1ccc(F)cc1 (centres undefined)	inconclusive: 21.9%
O=[N+]([O-])c1ccc(CN2CC(N3CCC(Cc4ccccc4)CC3)CS2(=O)=O)cc1 (centres undefined)	inconclusive: 84.6%
CS/C(=N\S(=O)(=O)c1ccccc1)c1ccccc1	inconclusive: 40.1%
Cc1ccc(S(=O)(=O)N(C)C[C@@H]2Oc3ccc(NS(=O)(=O)c4ccccc4)cc3CC(=O)N([C@H](C)CO)C[C@@H]2C)cc1	inactive: -6.61%
O=C(O)c1ccc(CNCc2cccc(Cl)c2)cc1	inactive: 0.262%
CC[C@]12c3[nH]c4cc(CCC(=O)N(C)C)ccc4c3CCN1C(=O)[C@@H](CC(=O)NCCC1=CCCCC1)C[C@@H]2C(=O)N1CCN(C(=O)c2ccco2)CC1	active: 24.9%
CCCCn1nnnc1C1(C)CCC(=O)N1Cc1ccc(OC)cc1 (centres undefined)	inactive: 12%
COc1cc(SC)ccc1C(=O)Nc1cccc(S(=O)(=O)NC2=NCCCCC2)c1	inconclusive: 59.3%
O=C(CNC(=O)c1ccc(Cl)cc1Cl)OCc1nc2ccccc2s1	inactive: -1%
C[C@@H]1CCCCO[C@H](CN(C)C(=O)NC2CCCCC2)[C@@H](C)CN([C@@H](C)CO)C(=O)c2cc(NS(=O)(=O)c3ccccc3)ccc2O1	inactive: -13.3%
CCC(C)n1c(=N)c(C#N)cc2c(=O)n3cc(C)ccc3nc21 (centres undefined)	inconclusive: 20.5%
CN1C(=O)c2cc(NC(=O)c3cc(F)cc(F)c3)ccc2OC[C@@H]2O[C@@H](CC(=O)O)CC[C@@H]21	inactive: 6.42%
C[C@@H]1CN([C@H](C)CO)C(=O)CCCn2nncc2CO[C@H]1CN(C)C(=O)Nc1ccc2c(c1)OCCO2	inconclusive: 30.6%
C/C=C/c1ccc2c(c1)O[C@@H](CN(C)C(=O)Nc1ccc(F)cc1)[C@@H](C)CN([C@@H](C)CO)S2(=O)=O	inactive: -4.45%
Cc1ccc(C(=O)Oc2ccc(C(=S)N3CCOCC3)cc2)cc1	inactive: 12.3%
O=C(CSc1nnc(-c2ccncc2)o1)Nc1cc(F)ccc1F	active: 44%
COC(=O)c1ccc2nc(NC(=O)CCS(=O)(=O)c3ccccc3)sc2c1	inconclusive: 21.7%
C[C@H](O)C#Cc1ccc2c(c1)O[C@@H](CN(C)C(=O)c1ccccc1)[C@@H](C)CN([C@@H](C)CO)S2(=O)=O	inactive: -0.51%
COc1ccc2c(c1)CC/C(=C/c1ccco1)C2=O	inconclusive: 32.2%
CC(C)(C)OC(=O)NOCC(=O)N(Cc1ccccc1)CC(O)COc1ccccc1 (centres undefined)	inconclusive: 70.2%
CC(C)(C)Cc1c(-c2cccc(Br)c2)nc2ccc(Br)cn12	inconclusive: 45.2%
Cc1cc(OCC(=O)NCc2ccccn2)c2c(C)c(Cc3ccccc3)c(=O)oc2c1	inconclusive: 31.8%
O=C(C[C@H]1C[C@@H]2c3cc(NC(=O)Nc4ccccc4F)ccc3O[C@@H]2[C@@H](CO)O1)NCc1cc(F)ccc1F	inactive: 2.09%
CCO[C@@H]1OC(C(=O)O)=C[C@H](C)[C@H]1CCCO	inconclusive: 21.8%
COc1c2c(c(OC)c3ccccc13)[C@]1(OC2)O[C@H](CCO)C[C@H](O)[C@H]1O	inconclusive: 62.3%

Among those listed so far, these contain a tert-butyl group:
SMILES	CPE inhibition
CC(C)(C)OC(=O)NOCC(=O)N(Cc1ccccc1)CC(O)COc1ccccc1 (centres undefined)	inconclusive: 70.2%
CC(C)(C)Cc1c(-c2cccc(Br)c2)nc2ccc(Br)cn12	inconclusive: 45.2%

The listing continues.

SMILES	CPE inhibition
Cc1cccc(-c2ccc([C@H]3[C@@H](CO)N4C(=O)CN(C(=O)NC5CCCCC5)C[C@@H]34)cc2)c1	inconclusive: 24.8%
COc1ccccc1/C=C/C(=O)OCCN1C(=O)c2ccccc2C1=O	inconclusive: 22.4%
Cc1ccc(S(=O)(=O)N[C@H](C(=O)OCC(=O)NC(=O)C2CCCCC2)C(C)C)cc1	inconclusive: 24.9%
O=C(C[C@@H]1CC[C@H]2[C@@H](COC[C@@H](O)CN2C(=O)c2ccc3c(c2)OCO3)O1)NC1Cc2ccccc2C1	active: 35.1%
CCCNC(=O)N(C)C[C@@H]1Oc2cc(-c3cncnc3)ccc2S(=O)(=O)N([C@@H](C)CO)C[C@@H]1C	inactive: 1.58%
CCCNC(=O)/C=C/C(=O)O	inconclusive: 26.1%
O=C(C[C@H]1CC[C@H](NC(=O)Nc2cccc(F)c2)[C@H](CO)O1)NCC1CC1	inconclusive: 22.2%
Cc1ccc(NC(=O)c2ccc(COc3ccccc3[N+](=O)[O-])o2)nc1	inconclusive: 31.5%
O=c1cc(-c2nn[nH]n2)[nH]c(=O)[nH]1	inactive: -5.83%
Cc1ccc(-c2cc(C(=O)N/N=C/c3ccc([N+](=O)[O-])o3)c3ccccc3n2)o1	inactive: -8.71%
COc1ccccc1-c1ccc2c(c1)O[C@H](CN(C)S(=O)(=O)c1ccc(F)cc1)[C@@H](C)CN([C@@H](C)CO)S2(=O)=O	inconclusive: 25.2%
COc1ccc(Cl)cc1S(=O)(=O)N1CCN=C1C	inconclusive: 27.9%
C[C@H]1CN=C(Nc2ccccc2)N1CCCC1CCCC1	active: 58.3%
N/C(=N\OC(=O)c1ccc2ccccc2c1)c1ccccc1Cl	inactive: 5.94%
COc1cc(NC(=O)c2cccc3c(-c4cccnc4)coc23)cc(OC)c1OC	inconclusive: 48.9%
C[C@H](CO)N1C[C@H](C)[C@@H](CN(C)C(=O)c2cnccn2)Oc2ncc(Br)cc2C1=O	active: 62.5%
Cc1nccn1CC(=O)N/N=C/c1cc(Br)cs1	inconclusive: 32.2%
CCCCn1c2ccccc2c2cc(CC(N)=O)ccc21	inactive: 16.9%
CCC/C=C(\CCC)C(NS(=O)(=O)c1cccc2cccnc12)c1ccc(C(=O)OC)cc1 (centres undefined)	inconclusive: 39.9%
O=C(Nc1ccc(F)cc1)N[C@@H]1CC[C@H](CC(=O)N2CCCCC2)O[C@@H]1CO	inactive: -0.909%
O=C(Nc1ccncc1)c1cc(-c2cccc(Br)c2)nc2ccccc12	inconclusive: 46.6%
COc1cccc(-c2ncc3ccccc3c2COC(=O)c2ccc(F)cc2)c1	active: 102%
COC(=O)C(CCSC)NC(=O)c1cn(-c2ccc(OC)cc2)c(=O)c2ccccc12 (centres undefined)	inconclusive: 21.1%
C[C@@H]1CCCCO[C@H](CN(C)S(=O)(=O)c2ccccc2)[C@@H](C)CN([C@@H](C)CO)C(=O)c2cc(NS(=O)(=O)c3cccs3)ccc2O1	inconclusive: 42.8%
